# From PubChem BioAssay AID1347426 (Functional Genomics Laboratory (NCATS/FGL), 2020)
# The whole screen tested about 31,000 sequences, of which about 1,400 (4.5%) were called active.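 Rule for the calls: active = median seed-adjusted z-score above 1 or below -1; inactive = the rest.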 The list shows a part of the results.
# Experiment: Novel Modifiers of Survival Motor Neuron (SMN) Protein: Gene Identification via Genome-wide siRNA Screen;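 note: luminescence tracks full-length SMN protein made from the SMN2 reporter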
# Conditions: HEK293T SMN2-luciferase reporter, siRNA knockdown, 72 h; actives lie on both sides
# Source text: Spinal muscular atrophy (SMA) is the most common neuromuscular autosomal recessive disorder and one of the leading genetic causes of infant death. SMA results from mutations inducing loss of function or deletion in the survival of motor neuron-1 gene (SMN1), leading to deficiency of the survival motor neuron (SMN) protein. Although a second nearly identical gene, SMN2, is retained in humans, its expression primarily produces an aberrantly spliced isoform that is largely unstable and quickly degraded. We performed a genome-wide RNAi screen using a cell-based reporter assay to identify genes and pathways that modulate SMN protein stability. The screen identified over 200 genes that led to the greatest increase or decrease in luciferase expression.
# Using HEK293T cells stably expressing a luciferase reporter that combines the promoter and splicing based cassettes in tandem with the major portion of the native SMN2 cDNA with luciferase, we performed a genome-wide RNAi screen to identify modulators of SMN protein levels. Luciferase is expressed when full-length SMN protein is generated with luminescence signal proportional to SMN protein levels. Our luciferase-based reporter assay was used to screen Ambion Silencer Select Human Druggable Genome siRNA library (10418 genes, 3 unique siRNAs per gene) using lipid-based reverse transfection.
# Briefly, 1 pmol of each siRNA was spotted to a well of a 384-well plate (Corning, Corning, NY) and 20 microL of serum-free DMEM containing […] of Lipofectamine RNAiMax (Life Technologies, Carlsbad, CA) was then added to each well. Transfected cells were maintained at 37 degrees C in 5% CO2 for 72 hours, 20 microL of ONE-Glo Reagent (Promega) was added to wells for luciferase quantification. Raw luminescence reads were normalized to Ambion(R) Silencer(R) Negative Control #2 siRNA, then log10 transformed. A robust statistical measure of median absolute deviation (MAD) to standardize siRNA activities from each screen. Common Seed Analysis was used to help prioritize clean hits as opposed to those appearing to arise from seed based off-target effects. Candidate modulators were defined as the genes having a MAD score greater than 1.0 or less than -1.0.
row,Sequence,median seed-adjusted z-score
1,GAUUCACGCCUUAUACAAATT against KLRA1,inactive: 0.918
2,GGACAAAAGAGAGGACAUATT against ZNF626,inactive: 0.185
3,GGAGAGCGACCAUCUUUAATT against PFKFB4,inactive: 0.149
4,AGUGAGACUGUACCUCUAATT against ATAD3C,inactive: -0.535
5,CGGUCCCUGUACUCAGAAATT against TRAP1,inactive: -0.637
6,CCAAUGCCCAGAUUAUGUATT against CELSR2,inactive: -0.493
7,GCCUGUCCCAGACCAUUGATT against KLC4,inactive: 0
8,GGUUUUCGCUCAGACUACATT against ENPP6,inactive: -0.548
9,GCAUCACGAUGAUUGAGUUTT against MAP2K6,inactive: -0.889
10,GAGUUGAACCUGCGCAUGATT against KRT14,inactive: -0.127
11,GUCUGAGGCCUUUAUCUUATT against RHOQ,inactive: -0.328
12,CGGGAGCUCCUACAUCUAUTT against PSMB6,inactive: -0.579
13,GCUAAGAAGAGAUAAUGAATT against MLKL,inactive: 0
14,GGAUGAAUUGACUCAAGUATT against AKAP14,inactive: 0.136
15,GAUAAUGAGUUGUUAUACATT against EDEM1,inactive: -0.175
16,GUCCUUUAACUGAAGCUUUTT against NDUFB9,inactive: -0.982
17,ACCAUAAUCUAAAAGGCCATT against GOLGA2L1,inactive: 0.487
18,GGCACUUAUUAUGAGGCUATT against SOD1,inactive: -0.8
19,CACUGAGUUCUCUAUAUUUTT against CERK,inactive: 0
20,GAGUUGUUCUAUGAUGUGATT against PDILT,inactive: -0.0994
21,GGAGUUUCAUUACAGCCGUTT against CDX1,inactive: 0
22,GGAAUACAUCUAUUGCCUUTT against CNGA2,inactive: -0.0447
23,GCACAGAACUCAACGCUGATT against COX4I2,inactive: -0.0202
24,GCCGUUCCAGUGUGAGUUUTT against ZIC2,inactive: -0.162
25,GGACUAUGAAGAUUUUAAATT against APOBEC3C,inactive: -0.103
26,CAAAGGUUAUUCUGCAUAUTT against CTSO,inactive: 0.322
27,GCCUUUAGAUCUUCUAGUUTT against ZNF136,inactive: 0.229
28,AGUGUUAAAUCAGAUGUUATT against PRDM9,inactive: -0.15
29,CGAGUACCAUCAGGAGAGATT against ZNF219,inactive: 0.127
30,CCCGGAGAAUUCUCAAUGATT against NENF,inactive: -0.778

# Reformatted tab-delimited: entries from further up
row	Sequence	median seed-adjusted z-score
4	AGUGAGACUGUACCUCUAATT against ATAD3C	inactive: -0.535
14	GGAUGAAUUGACUCAAGUATT against AKAP14	inactive: 0.136
